Reference: publication PMC10680284
Results are given in words; binding and its absence hold for the method and conditions named. Binding seen in cells or lysates may run through a third protein. Some entries that bind do so weakly or less than the wild type.

The chains behind the UniProt entries cited, without tags or fusion partners.
UniProt P40763: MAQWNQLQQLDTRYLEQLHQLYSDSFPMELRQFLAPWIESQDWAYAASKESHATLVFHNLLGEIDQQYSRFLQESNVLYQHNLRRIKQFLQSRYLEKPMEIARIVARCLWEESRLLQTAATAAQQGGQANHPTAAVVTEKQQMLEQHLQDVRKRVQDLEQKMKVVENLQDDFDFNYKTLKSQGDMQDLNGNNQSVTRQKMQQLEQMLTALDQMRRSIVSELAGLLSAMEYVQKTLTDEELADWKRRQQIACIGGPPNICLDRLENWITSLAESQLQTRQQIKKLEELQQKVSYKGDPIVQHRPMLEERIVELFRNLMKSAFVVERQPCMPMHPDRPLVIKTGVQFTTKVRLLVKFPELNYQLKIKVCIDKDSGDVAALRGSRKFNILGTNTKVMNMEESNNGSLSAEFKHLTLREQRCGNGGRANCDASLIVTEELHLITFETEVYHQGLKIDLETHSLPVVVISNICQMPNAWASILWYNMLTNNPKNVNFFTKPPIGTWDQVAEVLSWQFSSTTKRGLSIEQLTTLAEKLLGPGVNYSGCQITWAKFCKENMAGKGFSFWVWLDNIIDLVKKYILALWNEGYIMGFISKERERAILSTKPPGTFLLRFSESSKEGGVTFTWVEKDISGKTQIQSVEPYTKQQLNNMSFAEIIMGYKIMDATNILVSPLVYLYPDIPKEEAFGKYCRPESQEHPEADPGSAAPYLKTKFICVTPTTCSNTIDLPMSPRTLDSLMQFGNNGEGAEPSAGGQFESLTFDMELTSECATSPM

Target: STAT3 (human (endogenous in Lovo and HCT-116)) (UniProt P40763)
Experiment: co-IP; endogenous proteins in Lovo and HCT-116 cell lysates; IP with antibody against STAT3 or NLK, normal rabbit IgG as control; protein A and protein G; western blot

binding: binds
B1: NLK (protein, UniProt Q9UBE8 1-527)
chain: MSLCGARANAKMMAAYNGGTSAAAAGHHHHHHHHLPHLPPPHLHHHHHPQHHLHPGSAAAVHPVQQHTSSAAAAAAAAAAAAAMLNPGQQQPYFPSPAPGQAPGPAAAAPAQVQAAAAATVKAHHHQHSHHPQQQLDIEPDRPIGYGAFGVVWSVTDPRDGKRVALKKMPNVFQNLVSCKRVFRELKMLCFFKHDNVLSALDILQPPHIDYFEEIYVVTELMQSDLHKIIVSPQPLSSDHVKVFLYQILRGLKYLHSAGILHRDIKPGNLLVNSNCVLKICDFGLARVEELDESRHMTQEVVTQYYRAPEILMGSRHYSNAIDIWSVGCIFAELLGRRILFQAQSPIQQLDLITDLLGTPSLEAMRTACEGAKAHILRGPHKQPSLPVLYTLSSQATHEAVHLLCRMLVFDPSKRISAKDALAHPYLDEGRLRYHTCMCKCCFSTSTGRVYTSDFEPVTNPKFDDTFEKNLSSVRQVKEIIHQFILEQQKGNRVPLCINPQSAAFKSFISSTVAQPSEMPPSPLVWE
